Assay results taken from patent US11230581B2, “Peptides and combination of peptides for use in immunotherapy against ovarian cancer and other cancers” (Immatics Biotechnologies GmbH, priority 2015, dated 2022).

Legend:
ovarian cancer samples = assay: Relative LC-MS quantitation of HLA-presented peptides: presentation and over-presentation on ovarian cancer vs a panel of normal tissues (presentation score); parameters: species or system human; key: +++: very highly over-presented on tumors compared to a panel of normal tissues; ++: highly over-presented on tumors compared to a panel of normal tissues; +: over-presented on tumors compared to a panel of normal tissues; conditions: over-presentation on tumors compared to a panel of normal tissues
additional tumor types = assay: LC-MS detection and over-presentation of the peptides on additional tumor types, cell lines and primary cultures; parameters: species or system human; conditions: for Other relevant organs/ cancerous diseases: Table 4A: additional tumor types on which the peptide was found, over-presented on more than 5% of measured tumor samples, or presented on more than 5% with ratio of geometric means tumor vs normal tissues larger than 3; for Additional organs/cancerous diseases: additional tumor types with over-presentation on more than 5% of the measured tumor samples, or presentation on more than 5% with ratio of geometric means tumor vs normal tissues larger than 3

Substance | Peptide Presentation (presentation score) (ovarian cancer samples) | Other relevant organs/ cancerous diseases (additional tumor types) | Additional organs/cancerous diseases (additional tumor types)
435 (WLMPVIPAL; listed as Homo sapiens) [compound 435] | +++ | SCLC | Melanoma, Gallbladder Cancer and Bile Duct Cancer, AML
436 (HLAEVSAEV; listed as Homo sapiens) [compound 436] | +++ |  | NSCLC, SCLC, CLL, BRCA, Melanoma, Urinary Bladder Cancer, Gallbladder Cancer and Bile Duct Cancer, AML, NHL, HNSCC
437 (SMAPGLVIQAV; listed as Homo sapiens) [compound 437] | +++ | SCLC, Prostate | 
438 (KLLPLAGLYL; listed as Homo sapiens) [compound 438] | +++ |  | CLL, BRCA, Melanoma, Uterine Cancer, Gallbladder Cancer and Bile Duct Cancer, AML, HNSCC
439 (YLLQEIYGI; listed as Homo sapiens) [compound 439] | +++ | SCLC, BrCa | AML
440 (ALADGVTMQV; listed as Homo sapiens) [compound 440] | +++ | Gallbladder, Bile duct | SCLC, BRCA, Melanoma, Uterine Cancer
441 (ALLENPKMEL; listed as Homo sapiens) [compound 441] | +++ | NSCLC, SCLC, CRC, HCC, MCC, Esophageal Cancer | Urinary Bladder Cancer
444 (GLLRDEALAEV; listed as Homo sapiens) [compound 444] | +++ | NSCLC, SCLC, CRC, Melanoma, Esophageal Cancer | CLL, BRCA, Urinary Bladder Cancer, Uterine Cancer, AML, NHL, HNSCC
447 (QLVPALAKV; listed as Homo sapiens) [compound 447] | +++ | NSCLC, SCLC, HCC, PrC, Esophageal Cancer, Urinary bladder Cancer | BRCA, Melanoma, HNSCC
448 (NLLETKLQL; listed as Homo sapiens) [compound 448] | ++ | Colon, Rectum, Leukemia | CLL, Melanoma, NHL, HNSCC
450 (FMIDASVHPTL; listed as Homo sapiens) [compound 450] | +++ | NSCLC, SCLC, RCC, Brain Cancer, CRC, HCC, Leukemia, Melanoma, Esophageal Cancer | CLL, Urinary Bladder Cancer, HNSCC
451 (LLLLDTVTMQV; listed as Homo sapiens) [compound 451] | +++ | SCLC, HCC | Melanoma, HNSCC
454 (KLPPPPPQA; listed as Homo sapiens) [compound 454] | +++ | NSCLC, SCLC | BRCA, AML, HNSCC
455 (SLLKEPQKVQL; listed as Homo sapiens) [compound 455] | + | RCC | CLL, Melanoma, HNSCC
457 (SLLPGNLVEKV; listed as Homo sapiens) [compound 457] | +++ | NSCLC, HCC, Leukemia, Melanoma | 
458 (SLIDKLYNI; listed as Homo sapiens) [compound 458] | +++ |  | SCLC, Brain Cancer, Melanoma, Urinary Bladder Cancer, AML, HNSCC

Substance | Peptide Presentation (presentation score) (ovarian cancer samples) | Other relevant organs/ cancerous diseases (additional tumor types) | Additional organs/cancerous diseases (additional tumor types)
459 (ALITEVVRL; listed as Homo sapiens) [compound 459] | +++ | NSCLC, CRC, PC, Leukemia, BrCa, Esophageal Cancer | SCLC, CLL, AML, NHL
461 (VMFRTPLASV; listed as Homo sapiens) [compound 461] | +++ | SCLC, Melanoma, Esophageal Cancer | BRCA, Urinary Bladder Cancer, Uterine Cancer, NHL
463 (SLVESHLSDQLTL; listed as Homo sapiens) [compound 463] | +++ | NSCLC, SCLC, HCC, Melanoma | CLL, BRCA, Urinary Bladder Cancer, Uterine Cancer, Gallbladder Cancer and Bile Duct Cancer, NHL, HNSCC
464 (ALNDCIYSV; listed as Homo sapiens) [compound 464] | +++ | Brain Cancer, HCC, PC | HNSCC
466 (VLIANLEKL; listed as Homo sapiens) [compound 466] | +++ | BrCa, Esophageal Cancer | Urinary Bladder Cancer, NHL
468 (YLRSVGDGETV; listed as Homo sapiens) [compound 468] | + | Leukemia, Melanoma | Uterine Cancer
470 (MLQDSIHVV; listed as Homo sapiens) [compound 470] | +++ |  | BRCA
472 (KLLEVSDDPQV; listed as Homo sapiens) [compound 472] | ++ | HCC, MCC, Melanoma, Esophageal Cancer | HNSCC
473 (AMATESILHFA; listed as Homo sapiens) [compound 473] | +++ | SCLC, Brain Cancer, CRC, HCC, MCC, Gallbladder Cancer, Bile Duct Cancer | AML
474 (YLDPALELGPRNV; listed as Homo sapiens) [compound 474] | + | NSCLC, SCLC, Brain Cancer, HCC, MCC, Melanoma | BRCA
475 (LLLNEEALAQI; listed as Homo sapiens) [compound 475] | +++ | SCLC, Leukemia | 
476 (ALMERTGYSMV; listed as Homo sapiens) [compound 476] | +++ | HCC | Uterine Cancer
477 (ALLPASGQIAL; listed as Homo sapiens) [compound 477] | +++ | NSCLC, HCC, Esophageal Cancer, Urinary bladder Cancer | CLL, BRCA, Melanoma, Gallbladder Cancer and Bile Duct Cancer, HNSCC
478 (YLLHEKLNL; listed as Homo sapiens) [compound 478] | +++ |  | NHL
479 (SLFGNSGILENV; listed as Homo sapiens) [compound 479] | + | NSCLC, SCLC, HCC, MCC, Urinary bladder Cancer | Melanoma, Uterine Cancer, AML, HNSCC
